{"source": "paper PMC9314365", "binders": {"B1": {"name": "RalA^S28N (co-immunoprecipitation with RalGAPα1) (protein, UniProt P11233 1-206)", "chain": "MAANKPKGQNSLALHKVIMVGSGGVGKNALTLQFMYDEFVEDYEPTKADSYRKKVVLDGEEVQIDILDTAGQEDYAAIRDNYFRSGEGFLCVFSITEMESFAATADFREQILRVKEDENVPFLLVGNKSDLEDKRQVSVEEAKNRAEQWNVNYVETSAKTRANVDKVFFDLMREIRARKMEDSKEKNGKKKRKSLAKRIRERCCIL"}, "B2": {"name": "RalA^G23V (co-immunoprecipitation with RalGAPα1) (protein, UniProt P11233 1-206)", "chain": "B1 chain with G23V, N28S"}}, "biological_target": "RalGAPα1 region Val1133 to Pro1754", "assay": "co-IP; RalA^S28N or RalA^G23V with RalGAPα1 and its regions (interaction region mapping); details in Supplementary Figs. 7 and 8A, B", "note": "Changes are numbered by the printed parent chain. In names and notes the source's numbering stands. No constants are given. Whether binding was seen depends on the method and setting. In cells and extracts the contact can be indirect. A result given as binding can be weak or reduced; the word gives no strength."}
{"binder": "B1", "values": [{"measurement": "binding", "value": "binds"}]}
{"binder": "B2", "values": [{"measurement": "binding", "value": "binds"}]}
